The text below walks through data of the supplement of paper PMC3334620.

The full ranking holds about 33,000 sequences; the median of “E-score (-0.5 to 0.5)” is about -0.0034, and the highest 2% start at about 0.25. This is one part of the list.

This assay deals with T1, Yap3 (UniProt P38749).
T1 sequence: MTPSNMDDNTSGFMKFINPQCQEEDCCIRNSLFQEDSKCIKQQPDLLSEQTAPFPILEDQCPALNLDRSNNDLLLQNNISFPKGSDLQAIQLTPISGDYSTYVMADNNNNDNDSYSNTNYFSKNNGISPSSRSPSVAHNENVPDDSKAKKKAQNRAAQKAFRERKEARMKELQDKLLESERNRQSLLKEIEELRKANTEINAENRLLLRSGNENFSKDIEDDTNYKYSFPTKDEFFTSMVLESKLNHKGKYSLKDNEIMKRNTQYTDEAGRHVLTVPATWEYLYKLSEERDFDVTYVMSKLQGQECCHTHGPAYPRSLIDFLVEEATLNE
The assay can be described thus: PBM E-score (8-mer binding enrichment) (E-score (-0.5 to 0.5)); higher = stronger / more preferred TF binding. The conditions noted are these: protein concentration: 100 nM; construct: GST-full length. The method in brief: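 The E-score, a modified Wilcoxon-Mann-Whitney statistic, was computed by the Universal PBM Analysis Suite for every ungapped eight-base word pooled with its reverse complement. Scans behind it were normalised with masliner after bound GST-tagged yeast transcription factors were detected with fluorescent anti-GST. The proteins, at about 100-200 nM, had been applied to universal all-10-mer Agilent arrays made double-stranded by primer extension.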
Consider GTTCCCCA, for which the “PBM E-score” value was -0.0966.

For TAGGAACA, the “PBM E-score” value turned out to be 0.121.

For the sequence GATATACC, the “PBM E-score” value was found to be 0.151.

In the case of AAACTTCC, the “PBM E-score” value is -0.0651.

Regarding CATAACGC, the “PBM E-score” value is -0.014.

Turning to CATAGCGC, the “PBM E-score” value stood at 0.134.

On to GAACTTCC, for which the “PBM E-score” value is 0.012.

As for TGGTATAA, the “PBM E-score” value is 0.268.

With AGATATCA, the “PBM E-score” value is 0.0902.

For the sequence CCACACGA, the “PBM E-score” value was -0.102.

Turning to CGTTTGAG, the “PBM E-score” value is -0.0507.

On to AAACGAAA, for which the “PBM E-score” value stood at 0.234.

Turning to AAGCTCAG, the “PBM E-score” value is -0.13.

With TAAGCTCA, the “PBM E-score” value is -0.0888.

For CGCGGTGA, the “PBM E-score” value came to 0.016.

Regarding GAAGCAAC, the “PBM E-score” value was determined as 0.0624.

Turning to AAAATTCG, the “PBM E-score” value is 0.148.

On to AATCGCGC, for which the “PBM E-score” value was 0.124.

For the sequence CCCCCGGA, the “PBM E-score” value is -0.338.

ACCCTTAT: the “PBM E-score” value is 0.122.

Regarding CTGTGGGC, the “PBM E-score” value was -0.0254.

Take GGCACCGA: the “PBM E-score” value was -0.0393.

For CCATACCC, the “PBM E-score” value was -0.209.

With CGGAGACA, the “PBM E-score” value was found to be 0.00741.

Consider CTGGGAGC, for which the “PBM E-score” value is -0.297.

AGGAGGGC: the “PBM E-score” value was -0.381.

For CCATTCCA, the “PBM E-score” value is -0.0802.

For GCGAAATA, the “PBM E-score” value is -0.00036.

On to AACGCGTC, for which the “PBM E-score” value came out at 0.019.

Turning to CAACAGAG, the “PBM E-score” value was -0.0404.

Regarding AAAACATC, the “PBM E-score” value was 0.0461.

Take AGATCACC: the “PBM E-score” value came to 0.063.

Consider CGCGATTC, for which the “PBM E-score” value is 0.198.

On to ACCGCATC, for which the “PBM E-score” value is -0.0582.

Regarding CGAATCAG, the “PBM E-score” value is -0.019.

With CTCATCTA, the “PBM E-score” value worked out at 0.0126.

For the sequence ACACTCGT, the “PBM E-score” value was found to be 0.00445.

Regarding AACATTAA, the “PBM E-score” value amounted to 0.154.

Turning to TACCGGGA, the “PBM E-score” value is -0.0163.

For AGTACAGA, the “PBM E-score” value stood at 0.155.

Take ACAACCAT: the “PBM E-score” value came to 0.334.

Take AGTCCGAG: the “PBM E-score” value came to 0.0646.

As for AGCTCACC, the “PBM E-score” value is -0.122.

As to GATCCAAA, the “PBM E-score” value was -0.035.

As for CCACTGAG, the “PBM E-score” value is -0.253.

TACTACTA: the “PBM E-score” value stood at 0.223.

For the sequence AGCACTGG, the “PBM E-score” value is -0.0579.

Consider AACAAGCT, for which the “PBM E-score” value was 0.0372.

On to GTTTGGGA, for which the “PBM E-score” value is 0.128.

Turning to CCACCCGC, the “PBM E-score” value was -0.184.

With ACACCACT, the “PBM E-score” value turned out to be 0.172.

With AATGTCCA, the “PBM E-score” value was determined as 0.0203.

Take CAAATTCA: the “PBM E-score” value is 0.0554.

On to GATTTACC, for which the “PBM E-score” value stood at 0.187.

ATGGCAAT: the “PBM E-score” value is 0.0617.

CTAGCTAC: the “PBM E-score” value was -0.139.

As for GACCGGGA, the “PBM E-score” value was -0.188.

As for GTAATTGA, the “PBM E-score” value stood at 0.115.

For AGTGTGTA, the “PBM E-score” value turned out to be 0.135.

For the sequence CACCTTTA, the “PBM E-score” value was -0.0718.

For the sequence GAGTTATC, the “PBM E-score” value is 0.197.

Take ATACCTAG: the “PBM E-score” value came out at 0.169.

Consider AAGAGGAG, for which the “PBM E-score” value was -0.115.

For ACTAATGG, the “PBM E-score” value turned out to be 0.19.

Take GATAGTGC: the “PBM E-score” value is 0.0464.

Turning to CAGAGCCG, the “PBM E-score” value was -0.136.

In the case of CGGCGCCA, the “PBM E-score” value is -0.136.

In the case of ACGCCCCG, the “PBM E-score” value was -0.24.

As for CCTGACAC, the “PBM E-score” value turned out to be 0.0201.

As for GATTCAAA, the “PBM E-score” value worked out at 0.0843.

For CATCCCAC, the “PBM E-score” value was -0.25.

As for AATAAAAG, the “PBM E-score” value was determined as 0.0973.

Regarding CCAAGTCA, the “PBM E-score” value was -0.0299.

Take TCAAGACA: the “PBM E-score” value was -0.0949.

Regarding AGTTTGGC, the “PBM E-score” value is 0.00695.

Turning to CCTGCTCC, the “PBM E-score” value is -0.139.

For AATCATGA, the “PBM E-score” value amounted to 0.275.

Turning to AAAAACTT, the “PBM E-score” value is 0.0325.

Take CCGAGGGA: the “PBM E-score” value is -0.213.

As to GGTGACAC, the “PBM E-score” value is -0.132.

On to AGGCGCCA, for which the “PBM E-score” value was -0.0435.

Consider CGGGCCCC, for which the “PBM E-score” value is -0.246.

On to CAGATTCG, for which the “PBM E-score” value was -0.0389.

As to CCAGACCC, the “PBM E-score” value was -0.276.

Consider ACCAGATG, for which the “PBM E-score” value is -0.165.

On to TCGCACGA, for which the “PBM E-score” value was -0.103.

Consider GGGACTCA, for which the “PBM E-score” value is -0.305.

On to GCTTCATA, for which the “PBM E-score” value is -0.0535.

Regarding AAGCAAAA, the “PBM E-score” value turned out to be 0.095.

Consider CACACGGG, for which the “PBM E-score” value is -0.0901.

On to CTAATTTC, for which the “PBM E-score” value came to 0.197.

Turning to GCGATAGC, the “PBM E-score” value is -0.027.

TAGAGAAA: the “PBM E-score” value turned out to be 0.0112.

As for CAAATACA, the “PBM E-score” value stood at 0.247.

With CTGTGGGA, the “PBM E-score” value amounted to 0.0283.

As for CAGCGGGC, the “PBM E-score” value was -0.124.

Consider CAAACAGG, for which the “PBM E-score” value is -0.0362.

Consider CTCGAAAC, for which the “PBM E-score” value worked out at 0.0621.

CAGCTCCA: the “PBM E-score” value is -0.051.

As to AATACAAG, the “PBM E-score” value is 0.24.

Regarding CCGCCCCC, the “PBM E-score” value is -0.346.

On to CAGTTTCG, for which the “PBM E-score” value worked out at 0.0184.

As for CTTCTGTA, the “PBM E-score” value turned out to be 0.0878.

For the sequence GGGTTAAA, the “PBM E-score” value was 0.0408.

In the case of AATGGAGC, the “PBM E-score” value is -0.0449.

Take GGTCCGAC: the “PBM E-score” value was -0.152.

Consider AACTTCCC, for which the “PBM E-score” value is -0.0432.

Take GCGACCGA: the “PBM E-score” value came out at 0.136.

In the case of AAGAAGTC, the “PBM E-score” value was -0.0713.

As for AGAAGAGA, the “PBM E-score” value is -0.0441.
